According to the supplement of paper PMC10849652:
The list shows a part of the results.

Protein sequences, listed by entry. Tags and fused reporters are not part of them. Lines headed by an entry give the natural chain unless they say otherwise; changes in a name come on top.
UniProt Q7Z460: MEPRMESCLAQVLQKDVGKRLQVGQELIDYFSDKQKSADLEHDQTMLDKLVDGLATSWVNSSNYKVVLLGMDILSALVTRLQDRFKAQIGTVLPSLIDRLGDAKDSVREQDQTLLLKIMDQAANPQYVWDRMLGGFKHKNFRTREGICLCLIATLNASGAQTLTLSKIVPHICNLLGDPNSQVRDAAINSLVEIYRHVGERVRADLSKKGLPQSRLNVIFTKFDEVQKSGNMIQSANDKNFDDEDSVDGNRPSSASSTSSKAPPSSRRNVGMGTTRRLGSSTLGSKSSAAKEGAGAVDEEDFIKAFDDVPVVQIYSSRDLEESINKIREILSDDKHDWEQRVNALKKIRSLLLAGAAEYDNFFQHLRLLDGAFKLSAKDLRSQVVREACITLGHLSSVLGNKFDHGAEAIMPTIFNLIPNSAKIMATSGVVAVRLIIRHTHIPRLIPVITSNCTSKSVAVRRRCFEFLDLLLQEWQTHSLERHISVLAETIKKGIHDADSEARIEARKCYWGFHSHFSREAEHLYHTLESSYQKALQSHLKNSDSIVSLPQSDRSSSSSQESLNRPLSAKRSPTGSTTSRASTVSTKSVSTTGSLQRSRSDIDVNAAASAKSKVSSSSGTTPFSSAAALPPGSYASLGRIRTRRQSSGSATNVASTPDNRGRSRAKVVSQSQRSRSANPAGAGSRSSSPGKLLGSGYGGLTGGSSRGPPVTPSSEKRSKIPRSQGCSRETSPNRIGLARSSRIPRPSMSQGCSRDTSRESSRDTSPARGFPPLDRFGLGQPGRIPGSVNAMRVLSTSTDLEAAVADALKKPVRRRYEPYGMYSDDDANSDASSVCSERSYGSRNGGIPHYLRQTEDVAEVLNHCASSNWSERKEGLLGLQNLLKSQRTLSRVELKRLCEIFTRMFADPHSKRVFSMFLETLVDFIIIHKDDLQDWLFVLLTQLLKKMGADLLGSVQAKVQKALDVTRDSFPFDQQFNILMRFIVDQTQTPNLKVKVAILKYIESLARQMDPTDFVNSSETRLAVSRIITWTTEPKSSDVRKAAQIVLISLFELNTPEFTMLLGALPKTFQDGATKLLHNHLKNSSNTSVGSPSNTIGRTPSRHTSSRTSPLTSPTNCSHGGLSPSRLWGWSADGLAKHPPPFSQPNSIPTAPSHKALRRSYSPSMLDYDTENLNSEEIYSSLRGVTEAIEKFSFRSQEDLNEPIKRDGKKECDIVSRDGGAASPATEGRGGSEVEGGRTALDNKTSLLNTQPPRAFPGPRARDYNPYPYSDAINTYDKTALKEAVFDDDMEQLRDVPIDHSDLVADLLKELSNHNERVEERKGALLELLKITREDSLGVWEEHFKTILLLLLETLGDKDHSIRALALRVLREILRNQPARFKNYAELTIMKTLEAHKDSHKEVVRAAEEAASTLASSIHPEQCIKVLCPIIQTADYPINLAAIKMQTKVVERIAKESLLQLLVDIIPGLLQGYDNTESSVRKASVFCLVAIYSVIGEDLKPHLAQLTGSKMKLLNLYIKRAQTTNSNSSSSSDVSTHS
UniProt Q15846: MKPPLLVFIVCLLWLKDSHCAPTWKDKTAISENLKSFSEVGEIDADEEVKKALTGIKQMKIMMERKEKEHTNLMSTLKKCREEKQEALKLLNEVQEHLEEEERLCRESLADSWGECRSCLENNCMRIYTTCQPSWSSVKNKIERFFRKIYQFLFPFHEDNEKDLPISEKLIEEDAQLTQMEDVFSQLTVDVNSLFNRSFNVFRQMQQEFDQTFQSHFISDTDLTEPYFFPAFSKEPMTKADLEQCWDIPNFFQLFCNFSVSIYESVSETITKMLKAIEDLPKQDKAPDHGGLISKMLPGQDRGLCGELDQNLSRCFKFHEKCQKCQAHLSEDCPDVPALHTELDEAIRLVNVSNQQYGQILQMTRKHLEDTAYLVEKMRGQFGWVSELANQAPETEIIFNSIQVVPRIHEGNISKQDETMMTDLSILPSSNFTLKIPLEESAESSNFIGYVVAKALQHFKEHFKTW
UniProt P49759: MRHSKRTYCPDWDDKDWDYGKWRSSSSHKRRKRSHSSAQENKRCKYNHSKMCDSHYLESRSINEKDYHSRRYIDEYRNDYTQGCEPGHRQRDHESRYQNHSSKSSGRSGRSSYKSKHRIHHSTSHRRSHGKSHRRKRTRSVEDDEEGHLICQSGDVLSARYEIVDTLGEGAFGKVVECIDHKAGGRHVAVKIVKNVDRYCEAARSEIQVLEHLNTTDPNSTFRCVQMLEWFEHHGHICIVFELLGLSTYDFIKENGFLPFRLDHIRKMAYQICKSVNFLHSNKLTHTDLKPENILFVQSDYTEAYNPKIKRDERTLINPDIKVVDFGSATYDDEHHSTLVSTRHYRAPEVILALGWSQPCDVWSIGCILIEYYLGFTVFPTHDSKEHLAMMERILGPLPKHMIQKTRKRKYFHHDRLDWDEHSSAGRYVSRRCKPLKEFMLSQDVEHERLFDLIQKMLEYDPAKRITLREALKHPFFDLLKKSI
UniProt Q8IYT2: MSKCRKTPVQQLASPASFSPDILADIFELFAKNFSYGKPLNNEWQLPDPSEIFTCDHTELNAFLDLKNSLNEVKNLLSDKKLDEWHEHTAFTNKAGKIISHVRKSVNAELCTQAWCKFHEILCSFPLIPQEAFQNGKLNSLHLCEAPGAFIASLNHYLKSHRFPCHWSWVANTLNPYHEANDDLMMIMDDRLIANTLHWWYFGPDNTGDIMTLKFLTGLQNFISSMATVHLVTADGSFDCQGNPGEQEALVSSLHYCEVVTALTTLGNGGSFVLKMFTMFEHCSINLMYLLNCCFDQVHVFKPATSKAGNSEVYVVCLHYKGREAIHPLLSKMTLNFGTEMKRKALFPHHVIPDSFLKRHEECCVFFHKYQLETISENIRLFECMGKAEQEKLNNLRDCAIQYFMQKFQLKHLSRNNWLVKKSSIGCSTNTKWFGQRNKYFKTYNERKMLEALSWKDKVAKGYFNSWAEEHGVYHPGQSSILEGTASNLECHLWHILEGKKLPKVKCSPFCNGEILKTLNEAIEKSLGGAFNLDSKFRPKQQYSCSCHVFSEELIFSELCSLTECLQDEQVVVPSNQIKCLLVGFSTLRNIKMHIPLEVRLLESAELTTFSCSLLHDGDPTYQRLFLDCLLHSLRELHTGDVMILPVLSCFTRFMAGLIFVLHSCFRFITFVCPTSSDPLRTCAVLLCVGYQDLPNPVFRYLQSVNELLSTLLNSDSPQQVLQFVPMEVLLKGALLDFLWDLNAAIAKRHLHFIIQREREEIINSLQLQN
UniProt P33552, whole entry, looked up: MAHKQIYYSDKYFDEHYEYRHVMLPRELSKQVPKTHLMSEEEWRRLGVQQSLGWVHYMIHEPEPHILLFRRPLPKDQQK
UniProt O75503: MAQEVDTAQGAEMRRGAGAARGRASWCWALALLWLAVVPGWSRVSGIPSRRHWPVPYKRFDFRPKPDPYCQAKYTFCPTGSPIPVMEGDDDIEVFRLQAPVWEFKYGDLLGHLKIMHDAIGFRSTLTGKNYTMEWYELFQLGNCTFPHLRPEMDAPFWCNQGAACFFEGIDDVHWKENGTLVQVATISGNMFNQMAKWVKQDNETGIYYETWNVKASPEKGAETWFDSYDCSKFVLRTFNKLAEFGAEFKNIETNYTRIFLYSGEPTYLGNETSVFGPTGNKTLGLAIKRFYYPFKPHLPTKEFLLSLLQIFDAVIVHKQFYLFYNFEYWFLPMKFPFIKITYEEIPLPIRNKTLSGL

Compound: Cc1cn(-c2cc(NC(=O)c3ccc(C)c(Nc4nccc(-c5cccnc5)n4)c3)cc(C(F)(F)F)c2)cn1 [nilotinib]
Assay: log2 fold change, soluble protein after heating vs DMSO (PISA); higher = thermal stabilisation; K562 lysate, 10 uM; active = over 0.2 and 3.5 SD of the protein, either way, in both replicates (recomputed)
Summary of the method: (§1)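 Log-two fold change in thermal stability relative to solvent controls is reported from duplicates. For each sample, crude K562 extract from dounce-homogenised pellets in PBS pH 7.4 with 1 mM MgCl2, at 1 mg/mL protein, was treated with 10 μM compound for 30 min. Aliquots heated for 3 min across 48°C-58°C were pooled, brought to 0.5% NP-40 at 4°C and cleared at 21,000xg for 90 min. The supernatant was quantified by TMTpro 16plex LC-MS/MS with channel sums equalised.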

log2 fold change, inactive:
CLASP1 isoform 4 (UniProt Q7Z460) -0.113, CLUL1 (UniProt Q15846) -0.01, CLK1 isoform 3 (UniProt P49759) 0.1, CMTR2 (UniProt Q8IYT2) 0.017, CLUAP1 (UniProt I3L2E1) 0.105, CKS2 (UniProt P33552) -0.138, CLN5 (UniProt O75503) -0.097

Compound: Cc1nc(Nc2n[nH]c3c2CN(C(=O)N[C@H](CN(C)C)c2ccccc2)C3(C)C)c2sccc2n1
Assay: as above
Summary of the method: as §1

log2 fold change, inactive:
CLASP1 isoform 4 (UniProt Q7Z460) 0.126, CLUL1 (UniProt Q15846) 0.002, CLK1 isoform 3 (UniProt P49759) -0.057, CMTR2 (UniProt Q8IYT2) 0.313, CLUAP1 (UniProt I3L2E1) -0.238, CKS2 (UniProt P33552) 0.067, CLN5 (UniProt O75503) 0.117
